Experimental findings from the supplement of paper PMC6289059 are described below.

The list shows a part of the results. Single values are uncertain, as repeats are few or missing.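 The assay uses human stem cell-derived hepatocyte-like cells whose DGUOK gene was disrupted by CRISPR, modeling liver mtDNA depletion syndrome. ATP signals were scored within each plate, and any drug with a score of at least 3 was called a primary hit.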

This test deals with DGUOK Δ14/Δ5 iPSC-derived hepatocyte-like cells (SV20). Briefly: ATP level (CellTiter-Glo luminescence) Z score relative to plate distribution, under 2-DG glycolysis block; higher = more cellular ATP (rescue of mitochondrial ATP production). As to conditions: 5 µM; treatment time: day 15 to day 20 of differentiation (5 days); 2-deoxy-D-glucose: 20 mM for 24 h before assay. A general note: In ATP-based viability assays light output follows the ATP content of the culture.
As to `O=C(O)c1ccccc1C(=O)Nc1ccc(S(=O)(=O)Nc2nccs2)cc1`, the ATP level was inactive: 0.487.

Regarding `NC[C@@H]1O[C@@H](O[C@H]2[C@H](O)[C@@H](O[C@H]3O[C@H](CO)[C@@H](O)[C@H](N)[C@H]3O)[C@H](N)C[C@@H]2N)[C@@H](O)[C@H](O)[C@H]1O`, the ATP level is inactive: 1.17. `CC1CC(OC(=O)c2ccccc2O)CC(C)(C)C1` (centres undefined): the ATP level is inactive: 0.474. Take `COC(=O)c1cc(OC)c(=O)c2c(OC)c(OC)ccc2c1`: the ATP level was inactive: 0.995.

In the case of `C[C@H](CCC(=O)O)[C@H]1CC[C@H]2[C@@H]3[C@@H](O)C[C@@H]4C[C@H](O)CC[C@]4(C)[C@H]3CC[C@]12C`, the ATP level is inactive: 0.761. Regarding `CN1CCC(=C2c3ccccc3Sc3ccccc32)CC1`, the ATP level was inactive: -0.817. As for `Nc1c2ccccc2nc2ccccc12`, the figure is active: 4; as for `COC1=CC(=O)C(C(=O)c2ccccc2)=CC1=O`, inactive: 0.737. For `N[C@@H](Cc1cc(I)c(Oc2ccc(O)c(I)c2)c(I)c1)C(=O)O`, the ATP level is inactive: 0.845. In the case of `CC[C@H]1OC(=O)C[C@@H](O)[C@H](C)[C@@H](O[C@@H]2O[C@H](C)[C@@H](O[C@H]3C[C@@](C)(O)[C@@H](O)[C@H](C)O3)[C@H](N(C)C)[C@H]2O)[C@@H](CC=O)C[C@@H](C)C(=O)/C=C/C(C)=C/[C@@H]1CO[C@@H]1O[C@H](C)[C@@H](O)[C@@H](OC)[C@H]1OC`, the ATP level is inactive: 0.602. With `COc1ccc2c(=O)c(-c3ccc(O)cc3)coc2c1`, the ATP level is inactive: -1.04. The value for `COC(=O)CC1C(C)(C)C(OC(C)=O)[C@@H]2[C@@H](OC(C)=O)[C@]34O[C@@]2(O)[C@]1(C)C3CC[C@]1(C)C4=CC(=O)O[C@H]1c1ccoc1` (some centres undefined) was inactive: -1.34. Take `O=C(O)Cc1cc(I)c(Oc2cc(I)c(O)c(I)c2)c(I)c1`: the ATP level was active: 3.1. Take `CC1(C)O[C@@H]2C[C@H]3[C@@H]4CCC5=CC(=O)C=C[C@]5(C)[C@H]4[C@@H](O)C[C@]3(C)[C@]2(C(=O)CO)O1`: the ATP level was inactive: 2.14.

`CCN(CC)CCOc1ccc2c(c1)C(=O)c1cc(OCCN(CC)CC)ccc1-2`: the ATP level is inactive: -4.15.

With `CN(Cc1cnc2nc(N)nc(N)c2n1)c1ccc(C(=O)NC(CCC(=O)O)C(=O)O)cc1` (racemic), the ATP level is inactive: -4.29.

With `Cc1cc2nc3ccc(=[N+](C)C)cc-3sc2cc1N`, the ATP level was inactive: -8.64. For the molecule `C=C[C@@]1(C)CC(=O)[C@]2(O)[C@@]3(C)[C@@H](O)CCC(C)(C)[C@@H]3[C@H](O)[C@H](OC(C)=O)[C@@]2(C)O1`, the ATP level was inactive: 2.05. For the molecule `C/C(=C(\CCOP(=O)(O)O)SC(=O)c1ccccc1)N(C=O)Cc1cnc(C)nc1N`, the ATP level is inactive: 1.03. With `CCCCC(CC)COC(=O)C(C#N)=C(c1ccccc1)c1ccccc1` (centres undefined), the ATP level is inactive: 1.23.

`Nc1c2c(nc3ccccc13)CCCC2`: the ATP level is inactive: -4.34.

`COc1ccc(-c2coc3cc(O)ccc3c2=O)c(OC)c1OC`: the ATP level is inactive: -0.391.

Regarding `O=c1cc(-c2ccccc2)oc2cc(O)cc(O)c12`, the ATP level is inactive: -0.477. The value for `CC(C)=CCC/C(C)=C/CC/C(C)=C/CO` was inactive: -1.11. Take `Cc1c(C(=O)O)c(O)cc2c1C(=O)c1c(O)c([C@@H]3O[C@H](CO)[C@@H](O)[C@H](O)[C@H]3O)c(O)c(O)c1C2=O`: the ATP level was inactive: -0.351. The value for `CC(C)(C)C(=O)C(Oc1ccc(Cl)cc1)n1ccnc1` (centres undefined) was inactive: -0.167; that for `Cc1ccccc1OCC(O)CO` (centres undefined) was inactive: -10.9; that for `S=c1ccss1` was inactive: -0.999. As to `c1ccc2c(c1)CN1CCCC1=N2`, the ATP level was inactive: -0.218.

As for `C[C@H](N)[C@H](O)c1cccc(O)c1`, the ATP level is active: 3.37.

Consider `CCN(CC)CCOC(=O)C(Cc1cccc2ccccc12)CC1CCCO1` (centres undefined), for which the ATP level was inactive: -6.95. The value for `CC1(C)S[C@@H]2[C@H](NC(=O)C(C(=O)O)c3ccccc3)C(=O)N2[C@H]1C(=O)O` (some centres undefined) was inactive: -11.2; that for `C=C[C@@H](C1=CC(=O)C(OC)=C(OC)C1=O)c1ccccc1` was active: 4.44; that for `O=C1CN(/N=C/c2ccc(-c3ccc([N+](=O)[O-])cc3)o2)C(=O)N1` was inactive: 0.204. As for `COc1cc(O)c2c(c1)C(=O)c1cc(C)cc(O)c1C2=O`, the figure is inactive: 1.88; as for `CCOC(=O)n1ccn(C)c1=S`, inactive: 0.294. The value for `CC1(O)CCC(C(C)(C)O)CC1` (centres undefined) was inactive: 1.78; that for `CC1(C)S[C@@H]2[C@H](NC(=O)[C@H](C(=O)O)c3ccsc3)C(=O)N2[C@H]1C(=O)O` was inactive: 1.24. As to `CN[C@@H]1[C@@H](O)[C@@H](O[C@@H]2[C@@H](O)[C@H](O[C@H]3OC(CN)=CC[C@H]3N)[C@@H](N)C[C@H]2N)OC[C@]1(C)O`, the ATP level was inactive: -1.01. The value for `C=C[C@](C)(O)CCC=C(C)C` was inactive: 0.294; that for `CCCCC(CC)COC(=O)C=Cc1ccc(OC)cc1` (centres undefined) was inactive: 0.146; that for `CC(C)c1c(O)ccc2c1CC[C@H]1C(C)(C)CCC[C@]21C` was inactive: 0.0749.

In the case of `CCCC1O[C@@H]2C[C@H]3[C@@H]4CCC5=CC(=O)C=C[C@]5(C)[C@H]4[C@@H](O)C[C@]3(C)[C@]2(C(=O)CO)O1` (some centres undefined), the ATP level was inactive: -5.35. Consider `COc1cc(/C=C/c2ccc(O)cc2)cc(OC)c1`, for which the ATP level is inactive: -4.02. The value for `CCOC(=O)c1ncn2c1CN(C)C(=O)c1cc(F)ccc1-2` was inactive: 1.3; that for `O=NN(CCCl)C(=O)NCCCl` was active: 3.4. The value for `CC1=C(/C=C/C(C)=C/C=C/C(C)=C/C=C/C=C(C)/C=C/C=C(C)/C=C/C2=C(C)C(=O)CCC2(C)C)C(C)(C)CCC1=O` [CANTHAXANTHIN (euglenanone)] was inactive: 0.816; that for `Cl.NCCCC[C@H](N)C(=O)O` was inactive: 1.53. The value for `Nc1nc(N)c2nc(CNc3ccc(C(=O)N[C@@H](CCC(=O)O)C(=O)O)cc3)cnc2n1` was inactive: -2.94; that for `C#C[C@]1(O)CC[C@H]2[C@@H]3CCc4cc(O)ccc4[C@H]3CC[C@@]21C` was inactive: -2.63. Regarding `CC(C)=CC1C(CO)C1(C)C` (centres undefined), the ATP level is inactive: 0.382. The value for `Cc1occc(=O)c1O` was inactive: -1.44; that for `CC1(C)CC23C(=O)CCC(O)C2(C)CCC13` (centres undefined) was inactive: 0.164; that for `CCC(C(N)=O)c1ccccc1` (centres undefined) was inactive: -8.1.
